This passage reports binding results from publication doi:10.1101/2022.02.15.480489 (bioRxiv, 2022).

For this experiment, the target named is eAna2(ΔCC)-mNG (Ana2 lacking the central coiled-coil domain, aa195-229, with C-terminal mNG) (Drosophila melanogaster) (UniProt Q9XZ31). The experiment can be described thus: fluorescence correlation spectroscopy.

These are yes or no findings as the source states them, for the method shown.

B1: eAna2(ΔCC)-mNG (Ana2 lacking the central coiled-coil domain, aa195-229, with C-terminal mNG) (protein, UniProt Q9XZ31)
chain: MFVPETEDMLPRLAPRPSAAVPMGHTNEIIGPTVPEVSILFGQPPQDPQMQPQQPNHAHQESSPRAAPTFASWKKQMLPRVNFSPILATELGPRTAPSSNSPCSSKEYQVMPRDRNYASDAQQTTNHMNCNAGGYNAEPKQQAYQSRRLSSSSNADVLTICAGTQTDPFNPSPPRKSLPQVVYSDIDVSNLANKPEAISKASSTTGTQCDILTTNQAGRRLSPIMQDYIAEEEEPLPPPQARVIPQFPSPRPHPPIAQSTGYRANTPQAKRIPQLAKPNTEKSMVMNELALKYLRQPVDELMKDMRLGASPKSPNPEPLRPIDNIGHAQSPNDISNASYKYLKKYRLLPEEQLEPVCPQSPMAATAPSPHIQLDLENIRNQPKLL
As for B1, the binding result is reported as “no binding”.
